Data from PubChem BioAssay AID540275 (National Center for Advancing Translational Sciences (NCATS), 2011).
In all, about 320,000 compounds went through this assay and about 620 (0.19%) were called active. The inconclusive results got no clear call from the source; some entries with a clear call stand among them for comparison. Cut-off read from the data, not from the text of the source: active = activation above about 80%; inconclusive = between about 30% and that limit; inactive = weaker than that.

By UniProt entry, the sequences of proteins in these tests, tags left out.
UniProt Q8NER1, whole entry, looked up: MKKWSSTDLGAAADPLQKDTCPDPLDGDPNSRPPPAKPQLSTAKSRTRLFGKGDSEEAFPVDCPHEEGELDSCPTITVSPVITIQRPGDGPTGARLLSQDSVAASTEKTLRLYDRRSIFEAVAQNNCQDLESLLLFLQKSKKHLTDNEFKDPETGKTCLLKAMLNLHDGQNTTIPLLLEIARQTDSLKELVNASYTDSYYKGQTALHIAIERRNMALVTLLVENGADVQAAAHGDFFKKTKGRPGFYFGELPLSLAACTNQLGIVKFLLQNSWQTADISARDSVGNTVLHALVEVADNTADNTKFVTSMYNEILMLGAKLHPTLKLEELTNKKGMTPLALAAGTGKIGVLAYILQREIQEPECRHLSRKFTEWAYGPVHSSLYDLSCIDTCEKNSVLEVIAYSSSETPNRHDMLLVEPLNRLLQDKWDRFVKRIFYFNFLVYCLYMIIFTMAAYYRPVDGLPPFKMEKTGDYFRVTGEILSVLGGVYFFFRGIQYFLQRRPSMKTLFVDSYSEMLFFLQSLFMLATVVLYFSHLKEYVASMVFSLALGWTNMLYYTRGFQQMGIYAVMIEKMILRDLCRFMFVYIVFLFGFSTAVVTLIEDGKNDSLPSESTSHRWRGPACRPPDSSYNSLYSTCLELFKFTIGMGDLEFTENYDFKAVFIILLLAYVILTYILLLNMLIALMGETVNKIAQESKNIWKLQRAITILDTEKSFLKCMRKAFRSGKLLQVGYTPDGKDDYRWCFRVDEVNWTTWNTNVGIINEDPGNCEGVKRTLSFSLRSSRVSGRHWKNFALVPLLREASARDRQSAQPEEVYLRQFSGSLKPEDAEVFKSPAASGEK

Each compound was assayed against Transient receptor potential cation channel subfamily V member 1 (Homo sapiens) (UniProt Q8NER1) (assay: HTS Assay for Compounds that Act as Agonists of the Vanilloid Receptor 1). Settings: TRPV1-expressing cells, Fluo-8 calcium influx, agonist mode; at 8.33 µM, stronger effect = higher value.
How it was run: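 Fluo-8 calcium influx in TRPV1-expressing cells, kinetic read (ex 480/em 520 nm). Compound added and read 3 min for agonist activity, followed by capsaicin at EC20 final and 2 min further read for enhancement.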
Note: 0% is about no effect.

Row | SMILES | activation
1 | CC(C)c1ccc(/C=C/C(=O)NCCCc2ccccc2)cc1 | inconclusive: 39.9%
2 | Cc1ccc2sc(N3CCN(CCNC(=O)c4ccco4)CC3)nc2c1C | inconclusive: 33.9%
3 | Cc1noc(/C=C/c2ccco2)c1S(=O)(=O)N1CCC(C(=O)NCc2ccco2)CC1 | inconclusive: 35.6%
4 | CC(=O)Nc1sc(N/N=C/c2ccccc2)nc1-c1ccc(C)cc1 | inactive: 3.79%
5 | O=C(NC(Cc1ccccc1)C(=O)N1CCN(c2ccccc2O)CC1)c1ccccc1 (stereo unspecified) | inconclusive: 30.4%
6 | COc1ccc(CC(=O)OCC(=O)Nc2cccc(Cl)c2)cc1 | inactive: 12.1%
7 | CCCCCn1c(C(Cc2ccccc2)NC(=O)COC)nc2ccccc21 (stereo unspecified) | inconclusive: 78%
8 | O=C(Nc1ccc(F)cc1)c1ccc(-n2cncn2)c([N+](=O)[O-])c1 | inconclusive: 32%
9 | C(=N\n1cnnc1)/c1cccc(Oc2ccccc2)c1 | inactive: 1.13%
10 | COc1ccc(C2CC2/C(=N/O)c2ccccc2)cc1 (stereo unspecified) | inactive: 3.03%
11 | O=C(Nc1cc(C(F)(F)F)ccc1-n1cnc2ccccc21)c1ccccc1 | inconclusive: 51.9%
12 | CCOC(=O)Cc1csc(NC(=O)CCCN2C(=O)c3ccccc3C2=O)n1 | inactive: -1.71%
13 | O=C(NCCCO)C(=O)c1c(-c2ccccc2)cc2ccccn12 | inactive: -0.0947%
14 | O=[N+]([O-])c1ccc(OCCCOc2cccc3cccnc23)cc1 | inactive: -3.16%
15 | CCc1ccccc1NC(=O)Cn1c(=O)n(-c2ccc(CC(=O)NCC3CCCO3)cc2)c(=O)c2ccccc21 (stereo unspecified) | inactive: -0.591%
16 | CCN(CC)C(=O)N1c2ccccc2CC(N(CC)CC)c2ccccc21 (stereo unspecified) | inconclusive: 51%
17 | CCOC(=O)c1ccc(S(=O)(=O)Nc2nc3cc(S(=O)(=O)NC4=NCCCCC4)ccc3s2)cc1 | inactive: 3.74%
18 | COc1ccc(CNS(=O)(=O)NCc2ccc(C)cc2)cc1OC | inconclusive: 37.8%
19 | Cc1ccc(C)c(/C=N/NC(=S)NCCc2ccccc2)c1 | inactive: -0.927%
20 | Fc1ccc(N/N=C/c2ccncc2)c(F)c1 | inconclusive: 52%
21 | CCC1Oc2ccccc2N(CC(=O)NCCCN2CCN(c3ccc(OC)cc3)CC2)C1=O (stereo unspecified) | inactive: 2.6%
22 | COc1ccc(-c2ccnc(-c3ccc(O)cc3)n2)cc1 | inconclusive: 35.4%
23 | CCN1CCN(c2cc(C(C)C)nc3c(-c4ccccc4)c(C)nn23)CC1 | inconclusive: 32.5%

Row | SMILES | activation
24 | CN(C)c1cccc2c(S(=O)(=O)N3CCCC3)cccc12 | inconclusive: 50.7%
25 | O=C(CSc1ccccc1)NC1CCCCCCC1 | inconclusive: 33.3%
26 | CN(C)S(=O)(=O)Nc1ccccc1F | inactive: -2.3%
27 | O=C(NCCn1ccc2ccccc21)c1ccc2c(c1)OCO2 | inconclusive: 54.5%
28 | O=C(Nc1ccccc1)Nc1ccc(F)c([N+](=O)[O-])c1 | inconclusive: 53%
29 | CC(c1ccccc1F)n1cc(C(=O)NCc2ccncc2)nn1 (stereo unspecified) | inconclusive: 37.9%
30 | CCCC(C)NC(=O)c1nc(-c2ccccc2)n(-c2ccccc2)n1 (stereo unspecified) | inconclusive: 61.9%
31 | O=C1Nc2ccc(Cl)cc2C(C#CC2CC2)(C(F)(F)F)O1 (stereo unspecified) | inconclusive: 49.4%
32 | CC1CCCC(C)N1C(=O)CSc1nnnn1-c1cccc2c1CCCC2 (stereo unspecified) | inconclusive: 48.4%
33 | CC1=C(C(=O)OCc2ccccc2)C(c2ccccc2[N+](=O)[O-])NC(=O)N1C (stereo unspecified) | inactive: 4.52%
34 | CN(c1ccc(C(=O)Nc2cccnc2)cc1)S(=O)(=O)c1ccc(Cl)cc1 | inconclusive: 71.9%
35 | COc1ccc(C2C(C#N)=C(N)OC(C(C)(C)C)=C2C#N)cc1OC (stereo unspecified) | inactive: -0.46%
36 | O=C(N/N=C/c1ccc([N+](=O)[O-])o1)c1cn(-c2ccccc2)nc1-c1ccccc1 | inactive: -1.44%
37 | C=CCn1cccc(C(=O)Nc2ccc(OC)cc2)c1=O | inconclusive: 31.6%
38 | O=c1[nH]c2ccccc2nc1/C=C(\O)c1cccs1 | inconclusive: 72.2%
39 | CCOc1ccccc1NC1c2ccccc2C(=O)N1Cc1ccco1 (stereo unspecified) | inconclusive: 37.4%
40 | O=C(Nc1ccc(S(=O)(=O)N2CCOCC2)cc1)c1ccc2c(c1)OCO2 | inconclusive: 58.5%
41 | O=C(Cc1cccc(C(F)(F)F)c1)Nc1ccccc1 | inconclusive: 38.1%
42 | CCOC(=O)c1ccc(N/C=C/C(=O)C(C)(C)C)cc1 | inconclusive: 66.4%
43 | O=C(Nc1nnc(SCc2ccc(F)cc2)s1)C1=COCCO1 | inactive: 3.98%
44 | COC(=O)c1cccc(NC(=O)/C=C/c2ccc([N+](=O)[O-])cc2)c1 | inconclusive: 33.1%
45 | C(=C\c1nnc(-c2cccs2)o1)/c1ccccc1 | inconclusive: 35.2%
46 | COc1ccc(OC)c2[nH]c(=O)c(CCNC(=O)c3cc4ccccc4o3)cc12 | inactive: -5.47%

3 entries already listed, ordered by formula weight, low to high.
Row | SMILES | activation
28 | O=C(Nc1ccccc1)Nc1ccc(F)c([N+](=O)[O-])c1 | inconclusive: 53%
25 | O=C(CSc1ccccc1)NC1CCCCCCC1 | inconclusive: 33.3%
35 | COc1ccc(C2C(C#N)=C(N)OC(C(C)(C)C)=C2C#N)cc1OC (stereo unspecified) | inactive: -0.46%

(further entries)

Row | SMILES | activation
47 | Cc1ccc(C(C)NC(=O)c2ccc3c(c2)OCO3)cc1C (stereo unspecified) | inconclusive: 50.2%
48 | O=C(NCCCC1CCCC1)C1CCC(=O)N(Cc2ccc(Cl)cc2)C1 (stereo unspecified) | inconclusive: 45.2%
49 | Nc1c(C(=O)N2CCCCC2)sc2nc3c(cc12)CCCC3 | inconclusive: 44.6%
50 | COc1ccc(/C=N/NC(=O)c2ccc(-c3ccccc3)cc2)cc1O | inconclusive: 60.6%
51 | Cc1ccc(C(=O)NCc2ccc3c(c2)OCO3)cc1Cl | inconclusive: 32.5%
52 | CC(C)(C)C1CCc2onc(C(=O)Nc3cccnc3)c2C1 (stereo unspecified) | inconclusive: 62.6%
53 | CC(C)n1nc(C(=O)Nc2cccc(S(=O)(=O)N3CCOCC3)c2)c2ccccc2c1=O | inconclusive: 40.7%
54 | Cc1ccc(C(CC(=O)NCc2ccco2)c2ccc(OC(C)C)cc2)cc1 (stereo unspecified) | inconclusive: 47.6%
55 | COc1cccc(CN(C)C(=O)C(Cc2ccccc2)NC(=O)c2ccccc2)c1OC (stereo unspecified) | inconclusive: 37%
56 | Cc1nnn(C23C[C@@H]4C[C@@H](CC(C(=O)N5CCN(c6ccccc6)CC5)(C4)C2)C3)n1 | inactive: 7.23%
57 | CC(=O)Nc1ccc(C23CC4CC(CC(C4)C2)C3)cc1 | inconclusive: 45.7%
58 | CCCCS(=O)(=O)Nc1ccc(C)cn1 | inactive: -3.83%
59 | CCC(C)c1ccc(NC(=O)c2cccs2)cc1 (stereo unspecified) | inconclusive: 73.3%
60 | Cc1cc(Nc2ccc(Cl)cc2)nc(NCc2ccccc2)n1 | inconclusive: 56.5%
61 | Cc1ccc(NC(=O)c2ccc(CSc3nnc(C)s3)cc2)c(C)c1 | inconclusive: 72.9%
62 | O=C(O)C1CC(=O)N(c2ccc(OCc3ccccc3Cl)cc2)C1 (stereo unspecified) | inactive: 1.89%
63 | CC1Cc2ccccc2N1Cc1nc2cc(C(F)(F)F)ccc2c(=O)[nH]1 (stereo unspecified) | inactive: 0.51%
64 | O=C(NCC(c1ccco1)N1CCc2ccccc21)c1ccccc1 (stereo unspecified) | inconclusive: 31.9%
65 | CCc1cccc(CN2CCC(CNC(=O)Nc3ccc(Cl)cc3)CC2)c1 | inconclusive: 34.6%
66 | CC(C)(C)c1ccc(/C=C(\C#N)C(=O)NCCN2CCOCC2)cc1 | inconclusive: 49.1%
67 | OCCCNc1nc(-c2ccccc2)nc2c1oc1ccccc12 | inconclusive: 56.9%
68 | CCOC(=O)C1=C(N)Oc2ccc3ccccc3c2C1c1ccc(O)cc1 (stereo unspecified) | inconclusive: 45.7%
69 | CCCc1nn(C)c(C(=O)Nc2ccc(C)c(C)c2)c1Cl | inconclusive: 53.9%

Row | SMILES | activation
70 | CCN1CCN(CCNC(=O)c2ccc3c(c2)N(Cc2ccc(F)cc2)C(=O)/C(=C/c2ccccc2)S3)CC1 | inactive: 3.36%
71 | COc1ccc(/C=N\NC(=O)c2c(C)nc3ccc(Br)cn23)cc1 | inactive: 5.04%
72 | Cc1cccc(C)c1OCC(=O)Nn1c(COc2ccccc2)nc2ccccc2c1=O | inconclusive: 47.7%
73 | CN(CC(=O)Nc1cccc(F)c1)C(=O)c1ccc(N2CCCCC2)c([N+](=O)[O-])c1 | inconclusive: 44.4%
74 | COc1ccc(C(=O)Nc2cccc(C)c2)cc1 | inconclusive: 58.7%
75 | COc1cc2c(cc1NC(=S)Nc1cccc3ccccc13)oc1ccccc12 | inactive: -5.78%
76 | COc1ccc(/C=C/C(=O)NCCCN2CCCCCC2)cc1 | inactive: 0.665%
77 | CC1CN(c2cc(-c3ccccc3)c3ccccc3n2)CC(C)O1 (stereo unspecified) | inconclusive: 40.9%
78 | Cc1ccc(S(=O)(=O)Oc2ccc(/C=N/NC(=O)c3ccncc3)cc2)cc1 | inconclusive: 30.2%
79 | N#Cc1ccc(S(=O)(=O)N2CCCN(c3nc4ccc(Cl)cc4s3)CC2)cc1 | inconclusive: 41.7%
80 | Cc1ccc(-c2cc(=O)c3ccccc3[nH]2)cc1 | inactive: -1.61%
81 | CCc1nonc1NC(=O)c1oc2ccc(Br)cc2c1C | inactive: 0.615%
82 | Nc1nc(CN2CCN(c3ccccn3)CC2)nc(Nc2ccc(F)cc2)n1 | inactive: 0.96%
83 | Cc1cc(OCCCC(=O)Nc2cccc(-n3cnnn3)c2)ccc1Cl | inconclusive: 33%
84 | O=C(Nc1ccc(N2CCOCC2)cc1)C1(c2ccc(Cl)cc2)CCC1 | inactive: 12.3%
85 | CCC(C)Nc1nc(N)c([N+](=O)[O-])c(N2CCCCCC2)n1 (stereo unspecified) | inconclusive: 37.6%
86 | CC(=O)Nc1ccc(NC(=O)COc2cc(O)c3c(c2)OC(C)(C)CC3=O)cc1 | inconclusive: 39.6%
87 | CC(C)CCOc1cccc(OCC(=O)O)c1 | inactive: -0.39%
88 | Cc1cnc(NC(=O)c2cc3ccccc3o2)s1 | inconclusive: 54%
89 | Cc1ccc(S(=O)(=O)NCCC(=O)N2CCCCCCC2)cc1 | inconclusive: 32.4%
90 | COc1ccccc1N(CC(=O)Nc1ccc2c(c1)OCO2)S(=O)(=O)c1ccccc1 | inconclusive: 34.6%
91 | O=S(=O)(Cc1ccccc1)Nc1ccc(S(=O)(=O)N2CCCC2)cc1 | inconclusive: 41%
